In one test the target is KIF5B^1–490 (human) (UniProt P33176). As to the kind of experiment: co-IP; purified KIF5B 1-490 and Miro1 1-592-SNAPf-StrepII, 10 µg each, GFP-Trap beads, with and without 2 mM Ca2+; no TRAK, no MAP7; both purified.
In the next test the target is T1, TRAK2^1–360 (human) (UniProt O60296).
T1 sequence (chain, LD555 or LD655 dye on the SNAP-tag in motility assays): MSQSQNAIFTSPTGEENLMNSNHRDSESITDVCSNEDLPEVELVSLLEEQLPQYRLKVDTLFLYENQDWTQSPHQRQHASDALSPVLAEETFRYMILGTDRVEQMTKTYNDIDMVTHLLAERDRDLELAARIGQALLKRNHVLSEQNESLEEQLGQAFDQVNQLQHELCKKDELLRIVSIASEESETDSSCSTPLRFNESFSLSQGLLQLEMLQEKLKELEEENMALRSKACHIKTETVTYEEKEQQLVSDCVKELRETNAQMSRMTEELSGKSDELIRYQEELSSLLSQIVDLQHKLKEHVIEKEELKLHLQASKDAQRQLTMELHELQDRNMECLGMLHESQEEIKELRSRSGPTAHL
As to the kind of experiment: co-IP; purified proteins, 10 µg each, premixed on ice; KIF5B-GFP-SNAPf with TRAK1 1-360 or TRAK2 1-360 on GFP-Trap beads; MB buffer (30 mM HEPES, 5 mM MgSO4, 1 mM EGTA, pH 7.0) with 100 mM NaCl, 1 mg/ml BSA; 2 h on ice; with or without 10 nM MAP7; in Fig. 5b Miro1 1-592 added; both purified.

By UniProt entry, the sequences of proteins in these tests, tags left out. Residues count along the entry.
UniProt P33176, residues 1-490: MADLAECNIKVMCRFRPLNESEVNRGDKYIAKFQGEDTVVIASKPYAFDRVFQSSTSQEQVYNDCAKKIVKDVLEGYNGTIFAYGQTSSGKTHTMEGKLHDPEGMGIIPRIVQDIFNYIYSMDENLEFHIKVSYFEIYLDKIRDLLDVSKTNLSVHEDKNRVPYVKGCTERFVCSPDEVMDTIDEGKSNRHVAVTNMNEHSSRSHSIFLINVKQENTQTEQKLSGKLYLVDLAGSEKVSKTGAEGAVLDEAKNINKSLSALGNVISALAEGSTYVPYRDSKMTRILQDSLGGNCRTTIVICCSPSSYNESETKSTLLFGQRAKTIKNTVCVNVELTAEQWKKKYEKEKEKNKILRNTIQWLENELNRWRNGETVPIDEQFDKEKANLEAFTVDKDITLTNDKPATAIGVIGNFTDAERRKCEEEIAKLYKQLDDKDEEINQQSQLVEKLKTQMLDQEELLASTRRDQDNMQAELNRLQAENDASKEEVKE
UniProt Q8IXI2, residues 1-592: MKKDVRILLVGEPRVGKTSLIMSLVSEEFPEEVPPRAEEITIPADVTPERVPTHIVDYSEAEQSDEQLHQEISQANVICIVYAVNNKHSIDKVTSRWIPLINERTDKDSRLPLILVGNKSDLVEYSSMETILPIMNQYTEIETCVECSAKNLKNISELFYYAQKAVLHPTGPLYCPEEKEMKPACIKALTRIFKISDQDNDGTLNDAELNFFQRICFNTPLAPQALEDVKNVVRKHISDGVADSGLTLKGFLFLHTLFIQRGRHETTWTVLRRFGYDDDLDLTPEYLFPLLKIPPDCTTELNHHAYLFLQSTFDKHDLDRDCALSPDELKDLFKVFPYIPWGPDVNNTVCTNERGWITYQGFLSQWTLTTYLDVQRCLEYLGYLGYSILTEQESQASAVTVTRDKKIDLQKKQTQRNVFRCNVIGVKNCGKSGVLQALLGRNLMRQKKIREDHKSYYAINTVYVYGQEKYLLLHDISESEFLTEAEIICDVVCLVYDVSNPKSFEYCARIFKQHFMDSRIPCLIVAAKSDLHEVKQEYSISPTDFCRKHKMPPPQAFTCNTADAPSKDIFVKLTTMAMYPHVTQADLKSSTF

Results are given in words; binding and its absence hold for the method and conditions named.

In the case of “Miro1^1–592 (Miro1^1–592-SNAP-psc-StrepII) (from UniProt Q8IXI2 1-592) (domain or fragment)”, the binding result with KIF5B^1–490 (human) and with TRAK2^1–360 (human) was “no binding (tested: 10 µg of each protein)” throughout.

The record behind these values is paper PMC10011603.
